Reference: patent US20170280722A1, “COMPOSITIONS AND METHODS FOR CONTROL OF SAND FLIES AND OTHER BLOOD SUCKING INSECTS” (GENESIS LABORATORIES, INC., priority 2010, published 2017)
Where “and” joins values, the source holds several entries; their conditions need not be identical. Identical values can stand only once. Entries after “also recorded” stand apart in the source; their conditions may differ.

Test: Consumption of insecticide treated feed by Rattus rattus
Type: in vivo
Settings: for Consumption Day 1 / Consumption Day 2 / Consumption Day 3 / Consumption after decrease in Fipronil concentration Day 4 / Consumption after decrease in Fipronil concentration Day 5 / Feeding on treated food (palatability): R. rattus; for Consumption after decrease in Fipronil concentration Day 4 / Consumption after decrease in Fipronil concentration Day 5: Fip. 0.015% in chicken feed
[1] = R. rattus treatment group 250 ppm
[2] = Fip. 0.015% in chicken feed (so in the source), listed as Fip
[3] = Fip. 0.015% in chicken feed (so in the source), listed as Fip.

With ivermectin the “Mean (±SEM) insecticide consumption” value [1] was 6.0 mg ± 0.00, the “Consumption Day 1” value (Iverm. 0.025% in chicken feed) was 9 g and the “Consumption Day 2” value (Iverm. 0.025% in chicken feed) was 12 g and 9 g. The “Consumption Day 3” value (Iverm. 0.025% in chicken feed) was 7 g and 6 g.
In the case of eprinomectin, the “Mean (±SEM) insecticide consumption” value (R. rattus treatment group 100 ppm) is reported as 5.45 mg ± 0.25, the “Mean (±SEM) insecticide consumption” value [1] is reported as 3.95 mg ± 0.25 and the “Consumption Day 1” value (Eprino 0.025% in chicken feed) is reported as 10 g and 12 g. For the same compound, the “Consumption Day 2” value (Eprino 0.025% in chicken feed) was 7 g and 9 g, the “Consumption Day 3” value (Eprino 0.025% in chicken feed) was 5 g and 3 g and the “Consumption Day 1” value (Eprino. 0.01% in chicken feed) was 10 g and 13 g. The “Consumption Day 2” value (Eprino. 0.01% in chicken feed) was 14 g and 17 g and the “Consumption Day 3” value (Eprino. 0.01% in chicken feed) was 13 g and 12 g.
For N#Cc1nn(-c2c(Cl)cc(C(F)(F)F)cc2Cl)c(N)c1[S+]([O-])C(F)(F)F (centres unmarked) [fipronil], the “Mean (±SEM) insecticide consumption” value (R. rattus treatment group 150 ppm) was 5.75 mg ± 0.80, the “Consumption Day 1” value [2] was 5 g and the “Consumption Day 2” value [2] was 5 g. For the same compound, the “Consumption Day 3” value [2] was 1 g, the “Consumption Day 1” value [3] was 9 g and the “Consumption Day 2” value [3] was 3 g. The “Consumption Day 3” value [3] was 2 g, the “Consumption after decrease in Fipronil concentration Day 4” value (listed as Fip) was 8 g and the “Consumption after decrease in Fipronil concentration Day 5” value (listed as Fip) was 9 g. For the same compound, the “Consumption after decrease in Fipronil concentration Day 4” value (listed as Fip.) was 7 g, the “Consumption after decrease in Fipronil concentration Day 5” value (listed as Fip.) was 7 g and the “Feeding on treated food (palatability)” value (fipronil 0.025% (250 ppm), initial 3 day treatment period) was “feeding declined dramatically; also recorded: not readily consumed”. The “Feeding on treated food (palatability)” value (fipronil lowered to 0.015% (150 ppm), 2 extra days) was “increased dramatically; also recorded: readily consumed”.
With O=C(NC(=O)c1c(F)cccc1F)Nc1ccc(Cl)cc1 [diflubenzuron] the “Mean (±SEM) insecticide consumption” value (R. rattus treatment group 480 ppm) was 19.44 mg ± 0.85, the “Consumption Day 1” value (20 g feed offered daily, Diflu. 0.048% in chicken feed) was 10 g and 9 g and the “Consumption Day 2” value (Diflu. 0.048% in chicken feed) was 17 g and 15 g. For the same compound, the “Consumption Day 3” value (Diflu. 0.048% in chicken feed) was 16 g and 14 g.
